Screen size: about 400,000 compounds; about 13,000 (3.2%) were called active. Inconclusive means that the source gave no clear call. Such entries were picked first, then a sample of the others. The call rests on the fitted dose curve; in most records, active means well fitted cell-killing curve with a large enough effect; inconclusive means small, poorly fitted or top-dose-only effect, or effect the other way; inactive means flat fitted curve, though single readings scatter. Potencies beside an inconclusive call are fits to weak or partial responses and may not hold up.
Experiment: qHTS assay for MDR1-selective chemotherapeutics: Primary screen using the drug-selected MDR subline cells KB-V1; further: nearly all actives have a fitted effect of over 60% in size
Details: KB-V1 MDR cells viability, CellTiter-Glo, 72 h; series mostly up to 46.1 µM
Procedure, shortened: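 KB-V1 MDR subline cells in DMEM (phenol-red free, 10% FBS) exposed to compounds in qHTS concentration series for 72 h at 37 degrees C. Viability read by CellTiter-Glo luminescence; concentration-effect curves fitted after normalization and correction.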
Potency means the concentration at half of the fitted maximal effect.

SMILES	Potency
CSc1ccccc1C(=O)N(C)C(c1ccccc1)c1ccccc1	inconclusive: 29.1 µM [cytotoxic, single point]
Nn1c(CSc2nc3ccccc3o2)nnc1CSc1nc2ccccc2o1	inconclusive: 29.1 µM [cytotoxic, single point]
CC(=O)C1C(c2ccc([N+](=O)[O-])cc2)C2C(C)=NN=C2CC1(C)O (configuration not stated)	inconclusive: 29.1 µM [rising, single point]
COc1ccc(-c2cc(C(F)(F)F)nc(N3CCN(C)CC3)n2)cc1	active: 11.6 µM
Cc1cc(C)c(C(=O)N(CCN(C)C)CC2CCCN(Cc3ccccc3F)C2)o1 (configuration not stated)	inconclusive: 20.6 µM [cytotoxic, single point]
COc1cc(OC)cc(C(=O)Nc2cc3c(cc2N2CCOCC2)n(C)c(=O)n3C)c1	inactive
O=C(Nc1ccc2nsnc2c1)c1ccc2c(c1)OCO2	inconclusive: 8.2 µM [cytotoxic, partial curve]
CC(=O)N1CCCc2cc(S(=O)(=O)N3CCCC(C(=O)Nc4ccc(C)cc4C)C3)ccc21 (configuration not stated)	inconclusive: 20.6 µM [rising, single point]
COc1ccc(NC(=O)N2CCC(Cc3ccccc3)CC2)cc1	inconclusive: 3.66 µM [cytotoxic, partial curve, poor fit]
CC1Oc2ccccc2N(Cc2ccccc2Cl)C1=O (configuration not stated)	inconclusive: 16.4 µM [cytotoxic, single point]
COc1ccc(-n2nc3c(c2NC(=O)COc2ccccc2)CS(=O)(=O)C3)cc1	inconclusive: 29.1 µM [cytotoxic, single point]
CN(C(=O)c1ccccc1C(=O)OCC(=O)c1ccc(Br)cc1)c1ccccc1	inconclusive: 16.4 µM [cytotoxic, partial curve, poor fit]
Clc1ccc(OCc2nnc3n2N=C(c2ccc4c(c2)OCCO4)CS3)c(Cl)c1	inconclusive: 14.1 µM [cytotoxic, partial curve, poor fit]
COc1ccc(C(C(=O)NC2CCCCC2)N(C(=O)CCl)c2ccc(OC)cc2)cc1 (configuration not stated)	active: 3.66 µM
Cn1c(SCCC#N)nnc1-c1ccccc1F	inactive
Cc1c2cnn(CC(=O)N3CCN(c4ccccc4)CC3)c(=O)c2c(C)n1Cc1ccccc1Cl	inactive
O=C(CSc1ccccn1)N1CCOCC1	inconclusive: 29.1 µM [rising, single point]
Cc1ccccc1N1CCN(C2CCCN(C(=O)CCC(=O)N(C)C)C2)CC1 (configuration not stated)	inconclusive: 29.1 µM [rising, single point]
CC(=O)c1ccc(NC(=O)CCc2c(C)nc3c(c2C)c(=O)n(C)c(=O)n3C)cc1	inactive
Fc1cc(F)cc(NC(=S)N2CCN(c3ncccn3)CC2)c1	inconclusive: 29.1 µM [rising, single point]
CCCN(CC(=O)Nc1ccccc1C)C(=O)COc1ccc2c(c1)CCC2	inconclusive: 8.2 µM [cytotoxic, partial curve, poor fit]
O=[N+]([O-])c1ccc(SNc2ccccc2)c([N+](=O)[O-])c1	active: 23.1 µM
O=S(=O)(NCc1ccncc1)c1ccc(F)c(F)c1	inconclusive: 8.2 µM [cytotoxic, partial curve]

SMILES	Potency
CCCC1=Nc2cc(C(=O)NCc3ccco3)ccc2Sc2ccccc21	active: 4.11 µM
CCOc1cc(N2CCOCC2)c(OCC)cc1NC(=O)COC(=O)c1c(C)noc1C	inconclusive: 9.2 µM [cytotoxic, partial curve, poor fit]
CCN(C1CCCCC1)S(=O)(=O)CCNC(=O)c1ccc(OC)cc1	inconclusive: 16.4 µM [cytotoxic, partial curve]
CC1CCc2cc(F)ccc2N1C(=O)c1cc2nc(-c3ccco3)cc(C(F)(F)F)n2n1 (configuration not stated)	inconclusive: 14.6 µM [cytotoxic, single point]
CCOC(=O)C1(CC2CC2)CCN(Cc2ccc3cccc(F)c3n2)CC1	inconclusive: 23.1 µM [cytotoxic, single point]
Cc1csc(NC(=O)c2c(O)c3c(n(CC(C)C)c2=O)CCCC3)n1	inconclusive: 10.3 µM [cytotoxic, partial curve]
O=[N+]([O-])c1ccc(NNC(=S)Nc2ccccc2)cc1	inconclusive: 35.5 µM [cytotoxic, single point]
CC(C)CC(NC(=O)c1cccc(Cl)c1)C(=O)O (configuration not stated)	inconclusive: 25.9 µM [rising, single point]
CCC(c1nnc(SCC(=O)Nc2nnc(-c3ccccc3)o2)n1Cc1ccccc1)N(C)C (configuration not stated)	active: 23.1 µM
COc1ccccc1CNC(=S)Nc1ccc(F)cc1	inactive
COc1ccc(-c2sc(Nc3ccccc3)n[n+]2-c2ccc(F)cc2)c(OC)c1OC	inactive
CCOC(=O)c1cccc(NC(=O)C2CCCN2S(=O)(=O)c2cccc3cccnc23)c1 (configuration not stated)	inconclusive: 23.1 µM [cytotoxic, partial curve, poor fit]
c1csc(-c2nn3c(Cn4cnc5ccccc54)nnc3s2)c1	inconclusive: 29.1 µM [cytotoxic, single point]
CCCCN(CCCC)c1nc(-c2ccncc2)nc2ccccc12	inconclusive: 14.6 µM [cytotoxic, partial curve]
COc1c(Cl)cnn(-c2ccc(Cl)c(Cl)c2)c1=O	inconclusive: 20.6 µM [cytotoxic, single point]
COc1ccc(CCNC(=O)c2cc3n(n2)CCCN(Cc2ccc(C)cc2)C3=O)cc1OC	inactive
CCC(C)(C)NC(=O)C(c1ccc(OC)cc1)N(Cc1cccs1)C(=O)CCC(=O)Nc1cc(C)on1 (configuration not stated)	inactive
Cc1cc(OCC(=O)NC2CCN(Cc3ccccc3)CC2)c2c(C)cc(=O)oc2c1	inconclusive: 6.51 µM [cytotoxic, full curve, poor fit]
Cc1ccc(NC(=O)Cc2ccccc2)cc1S(=O)(=O)N1CCOCC1	active: 23.1 µM
CC1c2[nH]c3ccccc3c2C[C@H]2C(=O)N(CCCN(C)C)CC(=O)N12 (some centres not stated)	inconclusive: 25.9 µM [rising, single point]
CCCNC(=O)c1ccc(N2CCC3(CC2)CC(c2ccc(Cl)cc2)=NO3)c([N+](=O)[O-])c1	inconclusive: 32.6 µM [cytotoxic, partial curve, poor fit]
Cc1ccccc1CN(C)C(=O)COC(=O)c1ccc2[nH]c(C)c(C)c2c1	inconclusive: 16.4 µM [cytotoxic, single point]
CCOC(=O)/C=C/[C@H]1CC(c2ccccc2)(c2ccccc2)CO1	inactive

Exported with bars between the fields: entries from further up
SMILES | Potency
Cc1csc(NC(=O)c2c(O)c3c(n(CC(C)C)c2=O)CCCC3)n1 | inconclusive: 10.3 µM [cytotoxic, partial curve]
O=[N+]([O-])c1ccc(NNC(=S)Nc2ccccc2)cc1 | inconclusive: 35.5 µM [cytotoxic, single point]
CC(C)CC(NC(=O)c1cccc(Cl)c1)C(=O)O (configuration not stated) | inconclusive: 25.9 µM [rising, single point]

(listing goes on)

SMILES	Potency
O=C(Nc1ccc(N2CCCCC2)cc1)C(Cl)c1ccccc1 (configuration not stated)	inconclusive: 23.1 µM [cytotoxic, partial curve, poor fit]
O=C(CSc1cn(CC(=O)N2CCCCCC2)c2ccccc12)NCC1CCCO1 (configuration not stated)	inconclusive: 20.6 µM [cytotoxic, single point]
CCOC(=O)N1CCN(c2c(NCCCOC(C)C)c(=O)c2=O)CC1	inconclusive: 32.6 µM [cytotoxic, single point]
O=C(Nc1cccc(S(=O)(=O)N2CCCCC2)c1)c1ccc2c(c1)OCO2	active: 3.26 µM
CCOC(=O)N1CCN(C(=O)C2CCN(c3ncnc4c3sc3cccc(F)c34)CC2)CC1	inconclusive: 5.17 µM [cytotoxic, full curve, poor fit]
CC(C)CCNC(=O)CCc1nnc(Cc2c[nH]c3ccccc23)o1	inconclusive: 23.1 µM [rising, partial curve, poor fit]
COCCN1C=C(C(=O)OC)C(c2ccc(OC)c(OC)c2)C(C(=O)OC)=C1	inactive
Cc1cc(C)cc(NC(=O)CSc2nnc(C3CC3)n2CC2CCCO2)c1 (configuration not stated)	inconclusive: 4.61 µM [cytotoxic, partial curve, poor fit]
CCOc1ccc(NC(=O)CN2CCN(S(=O)(=O)c3ccc(OC)cc3)CC2)cc1	inactive
CCOc1cc(OCC)cc(C(=O)Nc2cccc(-c3nc4ccccc4[nH]3)c2)c1	inconclusive: 29.1 µM [cytotoxic, single point]
COc1cccc(Cn2c(=O)n(-c3cccc(Cl)c3)c(=O)c3c4c(sc32)CN(C(C)=O)CC4)c1	inconclusive: 16.4 µM [cytotoxic, partial curve, poor fit]
CCSc1nnc(NC(=O)C2CC(=O)N(Cc3ccccc3)C2)s1 (configuration not stated)	inconclusive: 29.1 µM [rising, single point]
CSC1=NC(C)(C)C=C(/C=C/c2ccc(Cl)cc2)N1	inconclusive: 29.1 µM [cytotoxic, single point]
OCC1(Cc2ccccc2)CCCN(Cc2c[nH]c3ccccc23)C1 (configuration not stated)	inactive
Cc1ccc(NC(=S)NCCc2ccc(S(N)(=O)=O)cc2)c(C)c1	inactive
Cc1ccc(Cn2c(=O)n(C)c(=O)c3sccc32)cc1	inconclusive: 29.1 µM [cytotoxic, single point]
Cc1nn(C)cc1C(C)NCc1c(C(=O)N2CCCCCCC2)nc2ccc(Cl)cn12 (configuration not stated)	inactive
COC(=O)c1ccc(NC(=O)Nc2ccc(F)c(Cl)c2)cc1	active: 18.4 µM
C=CCOc1ccccc1CN1CCSCC1	inconclusive: 25.9 µM [cytotoxic, single point]
CC(=O)C1=C(O)C(=O)N(c2ccc(Br)cn2)C1c1ccccc1F (configuration not stated)	inconclusive: 32.6 µM [cytotoxic, partial curve, poor fit]
Cc1sc(NC(=O)CCS(=O)(=O)c2ccccc2)c(C#N)c1C	inconclusive: 29.1 µM [cytotoxic, single point]
